Results from paper PMC6966473.
No constants are given. Whether binding was seen depends on the method and setting. Binding seen in cells or lysates may run through a third protein. Some binding calls cover weakened binding; strength is not graded here. For some assays here: Tags and fused reporters may be left off the sequences shown. Each block holds one binder with its values, some of them ahead of it.

Columns and labels:
[1] = target: T1, RASSF10, overexpressed (tag not stated) (human) (UniProt A6NK89); assay: pull-down; RASSF10 overexpressed in HEK cells and pulled down (GFP-Trap or Glutathione-Sepharose; which in which panel not told); overexpressed (Figure 4b) or endogenous (Figure 4c) ASPP1/2 detected by Western blot
T1 sequence: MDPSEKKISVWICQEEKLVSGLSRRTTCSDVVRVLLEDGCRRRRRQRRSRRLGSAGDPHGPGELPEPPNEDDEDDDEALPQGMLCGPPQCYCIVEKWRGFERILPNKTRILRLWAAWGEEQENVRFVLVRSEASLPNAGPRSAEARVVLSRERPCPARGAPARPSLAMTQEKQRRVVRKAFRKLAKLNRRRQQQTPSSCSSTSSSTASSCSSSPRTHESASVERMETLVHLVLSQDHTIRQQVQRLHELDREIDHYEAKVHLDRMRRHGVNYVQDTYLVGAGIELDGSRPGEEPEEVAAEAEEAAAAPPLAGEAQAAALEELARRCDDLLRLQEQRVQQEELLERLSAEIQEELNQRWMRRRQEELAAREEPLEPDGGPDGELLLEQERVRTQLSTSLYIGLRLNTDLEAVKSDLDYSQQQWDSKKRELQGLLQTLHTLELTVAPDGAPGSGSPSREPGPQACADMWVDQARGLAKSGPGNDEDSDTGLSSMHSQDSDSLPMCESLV

RASSF10-EYFP (human) = target: T2, RASSF10-EYFP (human) (UniProt A6NK89); assay: co-IP; wt-RASSF10 held on GFP-Trap, ASPP1/2 co-precipitated, RASSF10D237-362 as competitor (Figure S3c)
T2 sequence: T1 sequence

RASSF10D237-362 (human) = target: T3, RASSF10D237-362 (human) (UniProt A6NK89); assay: co-IP; co-precipitation of ASPP2 with RASSF10 or its domain mutants, with RASSF10 mutants or wt-RASSF10 as overexpressed competitors (Figure S3b)
T3 sequence: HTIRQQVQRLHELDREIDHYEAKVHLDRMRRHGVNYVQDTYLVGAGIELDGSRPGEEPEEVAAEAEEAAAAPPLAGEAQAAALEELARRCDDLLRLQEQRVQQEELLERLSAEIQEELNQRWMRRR

[2] = target: T1, RASSF10, overexpressed (tag not stated) (human); assay: as above
RASSF10D1-133 (human) = target: T4, RASSF10D1-133 (human) (UniProt A6NK89); assay: co-IP; co-precipitation of ASPP1/2 with RASSF10 or RASSF10 domain mutants (Figure S3a); tags and cells not given
T4 sequence: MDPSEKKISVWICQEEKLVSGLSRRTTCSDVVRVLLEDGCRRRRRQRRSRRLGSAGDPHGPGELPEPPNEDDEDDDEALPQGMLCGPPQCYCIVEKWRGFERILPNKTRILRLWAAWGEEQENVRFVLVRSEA

binding [1]: binds
B1: endogenous ASPP1 (HEK) (protein, UniProt Q96KQ4 1-1090)
chain: MMPMILTVFLSNNEQILTEVPITPETTCRDVVEFCKEPGEGSCHLAEVWRGNERPIPFDHMMYEHLQKWGPRREEVKFFLRHEDSPTENSEQGGRQTQEQRTQRNVINVPGEKRTENGVGNPRVELTLSELQDMAARQQQQIENQQQMLVAKEQRLHFLKQQERRQQQSISENEKLQKLKERVEAQENKLKKIRAMRGQVDYSKIMNGNLSAEIERFSAMFQEKKQEVQTAILRVDQLSQQLEDLKKGKLNGFQSYNGKLTGPAAVELKRLYQELQIRNQLNQEQNSKLQQQKELLNKRNMEVAMMDKRISELRERLYGKKIQLNRVNGTSSPQSPLSTSGRVAAVGPYIQVPSAGSFPVLGDPIKPQSLSIASNAAHGRSKSANDGNWPTLKQNSSSSVKPVQVAGADWKDPSVEGSVKQGTVSSQPVPFSALGPTEKPGIEIGKVPPPIPGVGKQLPPSYGTYPSPTPLGPGSTSSLERRKEGSLPRPSAGLPSRQRPTLLPATGSTPQPGSSQQIQQRISVPPSPTYPPAGPPAFPAGDSKPELPLTVAIRPFLADKGSRPQSPRKGPQTVNSSSIYSMYLQQATPPKNYQPAAHSALNKSVKAVYGKPVLPSGSTSPSPLPFLHGSLSTGTPQPQPPSESTEKEPEQDGPAAPADGSTVESLPRPLSPTKLTPIVHSPLRYQSDADLEALRRKLANAPRPLKKRSSITEPEGPGGPNIQKLLYQRFNTLAGGMEGTPFYQPSPSQDFMGTLADVDNGNTNANGNLEELPPAQPTAPLPAEPAPSSDANDNELPSPEPEELICPQTTHQTAEPAEDNNNNVATVPTTEQIPSPVAEAPSPGEEQVPPAPLPPASHPPATSTNKRTNLKKPNSERTGHGLRVRFNPLALLLDASLEGEFDLVQRIIYEVEDPSKPNDEGITPLHNAVCAGHHHIVKFLLDFGVNVNAADSDGWTPLHCAASCNSVHLCKQLVESGAAIFASTISDIETAADKCEEMEEGYIQCSQFLYGVQEKLGVMNKGVAYALWDYEAQNSDELSFHEGDALTILRRKDESETEWWWARLGDREGYVPKNLLGLYPRIKPRQRTLA

binding (RASSF10-EYFP (human)): binds | binding (RASSF10D237-362 (human)): binds | binding [2]: binds | binding (RASSF10D1-133 (human)): binds weakly
B2: ASPP2 (experiments of Figure S3) (protein, UniProt Q13625 1-1128)
chain: MMPMFLTVYLSNNEQHFTEVPVTPETICRDVVDLCKEPGESDCHLAEVWCGSERPVADNERMFDVLQRFGSQRNEVRFFLRHERPPGRDIVSGPRSQDPSLKRNGVKVPGEYRRKENGVNSPRMDLTLAELQEMASRQQQQIEAQQQLLATKEQRLKFLKQQDQRQQQQVAEQEKLKRLKEIAENQEAKLKKVRALKGHVEQKRLSNGKLVEEIEQMNNLFQQKQRELVLAVSKVEELTRQLEMLKNGRIDSHHDNQSAVAELDRLYKELQLRNKLNQEQNAKLQQQRECLNKRNSEVAVMDKRVNELRDRLWKKKAALQQKENLPVSSDGNLPQQAASAPSRVAAVGPYIQSSTMPRMPSRPELLVKPALPDGSLVIQASEGPMKIQTLPNMRSGAASQTKGSKIHPVGPDWSPSNADLFPSQGSASVPQSTGNALDQVDDGEVPLREKEKKVRPFSMFDAVDQSNAPPSFGTLRKNQSSEDILRDAQVANKNVAKVPPPVPTKPKQINLPYFGQTNQPPSDIKPDGSSQQLSTVVPSMGTKPKPAGQQPRVLLSPSIPSVGQDQTLSPGSKQESPPAAAVRPFTPQPSKDTLLPPFRKPQTVAASSIYSMYTQQQAPGKNFQQAVQSALTKTHTRGPHFSSVYGKPVIAAAQNQQQHPENIYSNSQGKPGSPEPETEPVSSVQENHENERIPRPLSPTKLLPFLSNPYRNQSDADLEALRKKLSNAPRPLKKRSSITEPEGPNGPNIQKLLYQRTTIAAMETISVPSYPSKSASVTASSESPVEIQNPYLHVEPEKEVVSLVPESLSPEDVGNASTENSDMPAPSPGLDYEPEGVPDNSPNLQNNPEEPNPEAPHVLDVYLEEYPPYPPPPYPSGEPEGPGEDSVSMRPPEITGQVSLPPGKRTNLRKTGSERIAHGMRVKFNPLALLLDSSLEGEFDLVQRIIYEVDDPSLPNDEGITALHNAVCAGHTEIVKFLVQFGVNVNAADSDGWTPLHCAASCNNVQVCKFLVESGAAVFAMTYSDMQTAADKCEEMEEGYTQCSQFLYGVQEKMGIMNKGVIYALWDYEPQNDDELPMKEGDCMTIIHREDEDEIEWWWARLNDKEGYVPRNLLGLYPRIKPRQRSLA
